Data on 39 sequences can be found in PMC7862700.

Chains of the proteins cited; added tags and fusions are not shown. Lines headed by an entry give the natural chain unless they say otherwise; changes in a name come on top.
UniProt O43186: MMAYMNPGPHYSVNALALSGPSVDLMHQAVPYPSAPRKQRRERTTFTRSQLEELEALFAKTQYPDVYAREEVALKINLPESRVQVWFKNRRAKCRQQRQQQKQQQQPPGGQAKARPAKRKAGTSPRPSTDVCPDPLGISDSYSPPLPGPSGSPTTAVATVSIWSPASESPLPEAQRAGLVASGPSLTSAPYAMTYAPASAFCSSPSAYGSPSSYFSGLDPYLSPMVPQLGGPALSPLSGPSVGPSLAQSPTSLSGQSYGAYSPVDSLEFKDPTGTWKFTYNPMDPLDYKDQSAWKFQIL

Only a part is listed here, and it is no random draw. At the low end of the ranking the order means little.

One assay concerns the target T1, FEV (UniProt Q99581).
T1 sequence: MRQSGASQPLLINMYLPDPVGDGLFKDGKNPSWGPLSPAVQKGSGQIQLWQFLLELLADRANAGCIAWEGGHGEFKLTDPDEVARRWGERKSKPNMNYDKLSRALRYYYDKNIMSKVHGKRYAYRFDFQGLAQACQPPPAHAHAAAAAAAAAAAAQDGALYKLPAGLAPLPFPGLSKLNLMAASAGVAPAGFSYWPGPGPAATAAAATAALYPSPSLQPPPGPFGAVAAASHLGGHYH
The assay can be described thus: DAPPL (digital affinity profiling via proximity ligation, sequencing). The note with it: 10 mM Tris-HCl pH 7.5, 50 mM NaCl, 1 mM DTT, 4% glycerol, room temperature, 30 min; GST-TFs on glutathione beads, 16-mer random dsDNA library, 0.1% …; high values mean tight binding; double strand, one strand shown; scale: fold enrichment (6-mer frequency, TF over GST control).
CGACAT displayed a binding signal of 1.31.
Same read-out and setting: the result for AGTAAC reads 0.94; that for TGTGCG, 0.971.
On the same count and under the same terms, next, CTGAAG: 1.05.
Still for that read-out and setting: next, ATTTTA: 1.25.
In turn, CCATCA displayed a binding signal of 1.13.
Same read-out and setting: next, AGTTGC: 0.982.
Still for that read-out and setting: the result for TAAGCG reads 0.919; that for ATAGAT, 1.15; that for TCCACG, 0.994.
On the same count and under the same terms, next, CTGAAA: 1.25; CATAGT: 0.905.
The sequence CTCGAG returned a binding signal of 1.2.
On the same count and under the same terms, the result for GACTTT reads 1.14; that for CGCTGC, 1.14; that for AGGGAA, 0.891.
On the same count and under the same terms, next, AATTGA: 1.11.
Still for that read-out and setting: next, TGGTTG: 0.874.
Turning to ATACGA, the binding signal turned out to be 1.16.
On the same count and under the same terms, next, CGTTGC: 1.11.
Still for that read-out and setting: next, CGCCAT: 0.999; ATGCGT: 1.01.
The same measure, in the same setting: next, TACTAT: 1.31; GTTTAT: 1.02.
Turning to AGTAGC, the binding signal stood at 1.04.
The same measure, in the same setting: the result for TAGAAT reads 1.04.
Still for that read-out and setting: next, ACCTGT: 0.968; GTATCA: 1.04.
Still for that read-out and setting: next, ACCCCT: 1.08; ATGGCA: 1.44; TGGTAA: 1.15.
In turn, ATGCAG displayed a binding signal of 1.11.
Still for that read-out and setting: the result for GACGAC reads 0.985.
Still for that read-out and setting: next, GCGCCT: 1.13.
CTTATA: the binding signal amounted to 1.31.
Still for that read-out and setting: the result for ACTTCT reads 1.4; that for TGACAT, 1.23.
On the same count and under the same terms, next, TTTTTT: 1.17; ACGATG: 1.05.

Another assay concerns the target CRX (UniProt O43186). Described as above. Conditions: 10 mM Tris-HCl pH 7.5, 50 mM NaCl, 1 mM DTT, 4% glycerol, room temperature, 30 min; GST-TFs on glutathione beads, 16-mer random dsDNA library, 0.1% …; high values mean tight binding; double strand, one strand shown; scale: fold enrichment (6-mer frequency, TF over GST control).
CGACAT registered a binding signal of 0.987.
Same read-out and setting: next, AGTAAC: 0.796; TGTGCG: 0.821.
Still for that read-out and setting: next, CTGAAG: 0.989.
Still for that read-out and setting: next, ATTTTA: 1.83; CCATCA: 1.04; AGTTGC: 0.763.
With TAAGCG, the binding signal came to 1.86.
The same measure, in the same setting: next, ATAGAT: 1.49.
Same read-out and setting: next, TCCACG: 0.945; CTGAAA: 1.
On the same count and under the same terms, next, CATAGT: 0.889.
In the case of CTCGAG, the binding signal turned out to be 1.26.
Still for that read-out and setting: next, GACTTT: 1.37.
Same read-out and setting: next, CGCTGC: 0.824; AGGGAA: 0.749; AATTGA: 1.1.
TGGTTG had a binding signal of 0.692.
On the same count and under the same terms, next, ATACGA: 1.17; CGTTGC: 0.755.
Same read-out and setting: next, CGCCAT: 0.808; ATGCGT: 0.936; TACTAT: 1.48.
In turn, GTTTAT displayed a binding signal of 1.33.
On the same count and under the same terms, the result for AGTAGC reads 0.834; that for TAGAAT, 1.83.
The same measure, in the same setting: next, ACCTGT: 0.777; GTATCA: 0.988; ACCCCT: 0.943.
Still for that read-out and setting: next, ATGGCA: 1.11; TGGTAA: 1.51; ATGCAG: 0.86.
GACGAC came in with a binding signal of 0.723.
On the same count and under the same terms, the result for GCGCCT reads 0.928.
On to CTTATA, for which the binding signal was determined as 2.27.
Same read-out and setting: the result for ACTTCT reads 1.55; that for TGACAT, 0.975; that for TTTTTT, 1.24.
Take ACGATG: the binding signal is 0.947.
